Laboratory results reported in patent publication US11999746B2, “Compounds” (GlaxoSmithKline Intellectual Property Development Limited, priority 2014, dated 2024).
Some entries share one result that the patent states for a list of compounds.

Target: Recombinant human PLA2 VIIB (Novel Serine Dependent Lipase, NSDL) (Homo sapiens, UniProt Q99487)
Assay: (2a) PLA2 VIIB assay (PED6 substrate)
Assay type: biochemical
Conditions: Examples 1-9, 11-105, 107-193, 203-259 and 413-430 were tested here

Selectivity between human recombinant Lp-PLA2 and PLA2 VIIB, at least 100 fold:
O=c1nc(OCc2cc(F)c(OC3(CCF)CC3)c(F)c2)cc2n1C[C@H]1CCCN21 [Example E105, (R)-3-((3,5-difluoro-4-(1-(2-fluoroethyl)cyclopropoxy)benzyl)oxy)-7,8,8a,9-tetrahydro pyrrolo[1′,2′:3,4]imidazo[1,2-c]pyrimidin-1(6H)-one]
O=c1nc(OCc2cc(F)c(Oc3ccnc(C(F)(F)F)c3)c(F)c2)cc2n1CC1COCCN21 (stereo not shown) [Example E107, 7-((3,5-Difluoro-4-((2-(trifluoromethyl)pyridin-4-yl)oxy)benzyl)oxy)-3,4, 11, 11a-tetra hydropyrimido[6′,1′:2,3]imidazo[5,1-c][1,4]oxazin-9(1H)-one]
Cn1cc(Oc2c(F)cc(COc3cc4n(c(=O)n3)CC3COCCN43)cc2F)cn1 (stereo not shown) [Example E108, 7-((3,5-Difluoro-4-((1-methyl-1H-pyrazol-4-yl)oxy)benzyl)oxy)-3,4,11,11a-tetrahydro pyrimido[6′,1′:2,3]imidazo[5,1-c][1,4]oxazin-9(1H)-one]
CCn1cc(Oc2c(F)cc(COc3cc4n(c(=O)n3)CC3COCCN43)cc2F)cn1 (stereo not shown) [Example E109, 7-((4-((1-Ethyl-1H-pyrazol-4-yl)oxy)-3,5-difluorobenzyl)oxy)-3,4,11,11a-tetrahydropyrimido[6′,1′:2,3]imidazo[5,1-c][1,4]oxazin-9(1H)-one]
O=c1nc(OCc2cc(F)c(Oc3cnc(C(F)(F)F)nc3)c(F)c2)cc2n1CC1COCCN21 (stereo not shown) [Example E110, 7-((3,5-Difluoro-4-((2-(trifluoromethyl)pyrimidin-5-yl)oxy)benzyl)oxy)-3,4,11,11a-tetra hydropyrimido[6′,1′:2,3]imidazo[5,1-c][1,4]oxazin-9(1H)-one]
N#Cc1cc(COc2cc3n(c(=O)n2)CC2COCCN32)ccc1Oc1ccc(F)c(C(F)(F)F)c1 (stereo not shown) [Example E111, 2-(4-Fluoro-3-(trifluoromethyl)phenoxy)-5-(((9-oxo-1,3,4,9,11,11a-hexahydropyrimido[6′,1′:2,3]imidazo[5,1-c][1,4]oxazin-7-yl)oxy)methyl)benzonitrile]
CCCn1cc(Oc2c(F)cc(COc3cc4n(c(=O)n3)C[C@H]3COCCN43)cc2F)cn1 [Example E112, (S)-7-((3,5-difluoro-4-((1-propyl-1H-pyrazol-4-yl)oxy)benzyl)oxy)-3,4,11,11atetrahydropyrimido[6′,1′:2,3]imidazo[5,1-c][1,4]oxazin-9(1H)-one]
O=c1nc(OCc2cc(F)c(Oc3ccnc(C(F)(F)F)c3)c(F)c2)cc2n1C[C@H]1COCCN21 [Example E113, (S)-7-((3,5-difluoro-4-((2-(trifluoromethyl)pyridin-4-yl)oxy)benzyl)oxy)-3,4, 11, 11a tetrahydropyrimido[6′,1′:2,3]imidazo[5,1-c][1,4]oxazin-9(1H)-one]
Cn1cc(Oc2c(F)cc(COc3cc4n(c(=O)n3)C[C@H]3COCCN43)cc2F)cn1 [Example E114, (S)-7-((3,5-difluoro-4-((1-methyl-1H-pyrazol-4-yl)oxy)benzyl)oxy)-3,4,11,11a-tetrahydropyrimido[6′,1′:2,3]imidazo[5,1-c][1,4]oxazin-9(1H)-one]
CCn1cc(Oc2c(F)cc(COc3cc4n(c(=O)n3)C[C@H]3COCCN43)cc2F)cn1 [Example E115, (S)-7-((4-((1-ethyl-1H-pyrazol-4-yl)oxy)-3,5-difluorobenzyl)oxy)-3,4,11,11a-tetrahydropyrimido[6′,1′:2,3]imidazo[5,1-c][1,4]oxazin-9(1H)-one]
O=c1nc(OCc2cc(F)c(F)c(F)c2)cc2n1C[C@H]1COCCN21 [Example E116, (S)-7-((3,4,5-trifluorobenzyl)oxy)-3,4,11,11atetrahydropyrimido[6′,1′:2,3]imidazo[5,1-c][1,4] oxazin-9(1H)-one]
Cc1cc(Oc2c(F)cc(COc3cc4n(c(=O)n3)C[C@@H]3COCCN43)cc2F)ccn1 [Example E117, (R)-7-((3,5-difluoro-4-((2-methylpyridin-4-yl)oxy)benzyl)oxy)-3,4,11,11atetrahydropyrimido[6′,1′:2,3]imidazo[5,1-c][1,4]oxazin-9(1H)-one]
Cc1ccc(Oc2c(F)cc(COc3cc4n(c(=O)n3)C[C@@H]3COCCN43)cc2F)cn1 [Example E118, (R)-7-((3,5-difluoro-4-((6-methylpyridin-3-yl)oxy)benzyl)oxy)-3,4,11,11atetrahydropyrimido[6′,1′:2,3]imidazo[5,1-c][1,4]oxazin-9(1H)-one]
O=c1nc(OCc2cc(F)c(Oc3ccnc(C(F)(F)F)c3)c(F)c2)cc2n1C[C@@H]1COCCN21 [Example E119, (R)-7-((3,5-difluoro-4-((2-(trifluoromethyl)pyridin-4-yl)oxy)benzyl)oxy)-3,4, 11, 11a-tetra hydropyrimido[6′,1′:2,3]imidazo[5,1-c][1,4]oxazin-9(1H)-one]
CCn1cc(Oc2c(F)cc(COc3cc4n(c(=O)n3)C[C@@H]3COCCN43)cc2F)cn1 [Example E121, (R)-7-((4-((1-ethyl-1H-pyrazol-4-yl)oxy)-3,5-difluorobenzyl)oxy)-3,4,11,11a-tetrahydropyrimido[6′,1′:2,3]imidazo[5,1-c][1,4]oxazin-9(1H)-one]
CCCn1cc(Oc2c(F)cc(COc3cc4n(c(=O)n3)C[C@@H]3COCCN43)cc2F)cn1 [Example E122, (R)-7-((3,5-difluoro-4-((1-propyl-1H-pyrazol-4-yl)oxy)benzyl)oxy)-3,4,11,11atetrahydropyrimido[6′,1′:2,3]imidazo[5,1-c][1,4]oxazin-9(1H)-one]
Cc1cc(Oc2c(F)cc(COc3cc4n(c(=O)n3)C[C@H]3COCCN43)cc2F)ccn1 [Example E124, (S)-7-((3,5-difluoro-4-((2-methylpyridin-4-yl)oxy)benzyl)oxy)-3,4,11,11atetrahydropyrimido[6′,1′:2,3]imidazo[5,1-c][1,4]oxazin-9(1H)-one]
Cc1ccc(Oc2c(F)cc(COc3cc4n(c(=O)n3)C[C@H]3COCCN43)cc2F)cn1 [Example E125, (S)-7-((3,5-difluoro-4-((6-methylpyridin-3-yl)oxy)benzyl)oxy)-3,4,11,11atetrahydropyrimido[6′,1′:2,3]imidazo[5,1-c][1,4]oxazin-9(1H)-one]
O=c1nc(OCc2ccc(F)cc2F)cc2n1C[C@H]1COCCN21 [Example E126, (S)-7-((2,4-difluorobenzyl)oxy)-3,4,11,11a-tetrahydropyrimido[6′,1′:2,3]imidazo[5,1-c][1,4] oxazin-9(1H)-one]
